Results taken from US20160304622A1.
No constants are given. Whether binding was seen depends on the method and setting. Some binding calls cover weakened binding; strength is not graded here. For some assays here: Where a sequence is shown, tags or fusion partners need not be part of it. One block for each binder: values may come before it.

Experiments:
[1] = molecular target: T1, recombinant FLAG/DHFR-tagged disintegrin and thrombospondin domains (Dis/TSP) of ADAMTS4 (human) (UniProt O75173); test: immunoblotting of FLAG/DHFR-tagged domain proteins, antibody 2 µg/ml
T1 sequence: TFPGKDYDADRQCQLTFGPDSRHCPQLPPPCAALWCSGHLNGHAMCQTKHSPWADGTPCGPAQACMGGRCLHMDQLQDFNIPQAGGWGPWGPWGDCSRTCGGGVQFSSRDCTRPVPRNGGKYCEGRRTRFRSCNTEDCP

[2] = molecular target: T2, Recombinant ADAMTS4 (R&D Systems Inc.) (Homo sapiens (Human)) (UniProt O75173); test: ELISA of Fab extracts on the antigen
T2 sequence: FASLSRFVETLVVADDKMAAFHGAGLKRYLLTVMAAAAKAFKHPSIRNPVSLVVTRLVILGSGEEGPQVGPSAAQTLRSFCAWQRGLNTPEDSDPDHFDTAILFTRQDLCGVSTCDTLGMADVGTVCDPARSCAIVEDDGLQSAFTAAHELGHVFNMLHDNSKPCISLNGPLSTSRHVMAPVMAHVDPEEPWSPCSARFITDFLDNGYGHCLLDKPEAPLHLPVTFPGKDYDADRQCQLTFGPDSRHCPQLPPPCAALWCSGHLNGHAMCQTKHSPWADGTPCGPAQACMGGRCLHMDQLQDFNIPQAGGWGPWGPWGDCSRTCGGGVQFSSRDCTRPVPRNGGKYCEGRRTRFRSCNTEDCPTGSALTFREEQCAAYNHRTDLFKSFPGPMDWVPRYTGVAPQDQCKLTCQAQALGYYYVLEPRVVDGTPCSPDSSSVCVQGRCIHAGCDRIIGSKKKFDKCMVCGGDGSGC

binding [1]: binds
B1: human anti-ADAMTS antibody (IgG1; clone 237-53) (antibody, V domains shown)
VH: QVQLVQSGAEVKKPGSSVKVSCKASGGTFSSFAISWVRQAPGQGLEWMGGIFPIFGQANYAQKFQGRVTITADESTSTAYMELSSLRSEDTAVYYCARFSDWWEWQMDYWGQGTLVTVSS
VL: DIVMTQSPDSLAVSLGERATINCRSSQSILYSSNNNYLAWYQQKPGQPPKLLIHTASARESGVPDRFSGSGSGTDFTLTISSLQAEDVAVYYCQQYYSVSITFGQGTKVEIKR

binding [2]: binds
B2: Fab of clone 237-53 (Fab, V domains shown)
VH: B1 VH
VL: B1 VL
